Source: PubChem BioAssay (NCATS)
This list was built around the results that the source calls inconclusive (neither active nor inactive); the mix of calls is not that of the screen. For some of these results: Where the call is inconclusive, the potency comes from a doubtful curve fit. Activity calls are given as the source filed them. The call rests on the fitted dose curve; in most records, active means well fitted curve in the direction sought with a large enough effect; inconclusive means small, poorly fitted or top-dose-only effect, or another doubt; inactive means no such curve, though single readings can be large; an effect the other way counts as inactive or inconclusive.

Tests used:
[1] = Quantitative High-Throughput drug screen in 47 multiple myeloma cell lines against the NCATS MIPE library collection: JIM3_ECACC cell viability assay (AID 1918963; further: nearly all actives have a fitted effect of over 35% in size; further: potency means the concentration at half of the fitted maximal effect); conditions: JIM3 myeloma viability, CellTiter-Glo ATP, 48 h; series mostly up to 45.8 µM
Method in brief: (§1)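 Myeloma cells (500 per well) were exposed to MIPE 4.0 compounds by pin transfer and incubated 48 hours at 37C, 5% CO2. Viability was read as ATP by CellTiter-Glo luminescence, normalised to DMSO (100%) and media-only (0%) wells.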

[2] = Quantitative High-Throughput drug screen in 47 multiple myeloma cell lines against the NCATS MIPE library collection: JIM1_ECACC cell viability assay (AID 1918964; further: potency means the concentration at half of the fitted maximal effect); conditions: JIM1 myeloma viability, CellTiter-Glo ATP luminescence, 48 h; viability (% of DMSO): at 45.8 µM (top of the series)
Method in brief: (§2)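 Primary qHTS used for cherry-picking: cells at 500/well, library compounds for 48 h (37C, 5% CO2), luminescent ATP assay.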

[3] = Quantitative High-Throughput drug screen in 47 multiple myeloma cell lines against the NCATS MIPE library collection: INA6_PLB cell viability assay (AID 1918965; further: nearly all actives have a fitted effect of over 55% in size; further: potency means the concentration at half of the fitted maximal effect); conditions: INA6 myeloma viability, CellTiter-Glo ATP luminescence, 48 h; viability (% of control): at 45.8 µM (top of the series)
Method in brief: (§3)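 CellTiter-Glo ATP luminescence gave viability after 48 h compound treatment at 37C of 500 multiple myeloma cells per well. Normalisation used DMSO-only wells as 100% and media-only wells as 0% viability; primary qHTS of approved and investigational drugs.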

[4] = Quantitative High-Throughput drug screen in 47 multiple myeloma cell lines against the NCATS MIPE library collection: JJN3_DSMZ cell viability assay (AID 1918966; further: nearly all actives have a fitted effect of over 50% in size; further: potency means the concentration at half of the fitted maximal effect); conditions: JJN3 myeloma cells viability, CellTiter-Glo ATP, 48 h; series mostly up to 45.8 µM
Method in brief: as §2

[5] = Quantitative High-Throughput drug screen in 47 multiple myeloma cell lines against the NCATS MIPE library collection: KMS12BM_JCRB cell viability assay (AID 1918971); further: nearly all actives have a fitted effect of over 35% in size; further: potency means the concentration at half of the fitted maximal effect
Method in brief: as §1

[6] = Quantitative High-Throughput drug screen in 47 multiple myeloma cell lines against the NCATS MIPE library collection: KMS12PE_JCRB cell viability assay (AID 1918972); conditions: KMS12PE myeloma viability, CellTiter-Glo ATP, 48 h; viability: at 45.8 µM (top of the series); further: nearly all actives have a fitted effect of over 30% in size; further: potency means the concentration at half of the fitted maximal effect
Method in brief: as §3

[7] = Quantitative High-Throughput drug screen in 47 multiple myeloma cell lines against the NCATS MIPE library collection: KMS20_JCRB cell viability assay (AID 1918973); conditions: CellTiter-Glo ATP, 48 h; viability (% of DMSO): at 45.8 µM (top of the series); further: nearly all actives have a fitted effect of over 45% in size; further: potency means the concentration at half of the fitted maximal effect
Method in brief: as §2

[8] = Quantitative High-Throughput drug screen in 47 multiple myeloma cell lines against the NCATS MIPE library collection: KMS21BM_JCRB cell viability assay (AID 1918974); conditions: ATP luminescence, 48 h; viability: at 45.8 µM (top of the series) unless noted; further: potency means the concentration at half of the fitted maximal effect
Method in brief: as §2

[9] = Quantitative High-Throughput drug screen in 47 multiple myeloma cell lines against the NCATS MIPE library collection: KMS26_JCRB cell viability assay (AID 1918975); conditions: KMS26 myeloma cells viability, CellTiter-Glo ATP, 48 h; viability (% of DMSO): at 45.8 µM (top of the series); further: nearly all actives have a fitted effect of over 45% in size; further: potency means the concentration at half of the fitted maximal effect
Method in brief: as §1

[10] = Quantitative High-Throughput drug screen in 47 multiple myeloma cell lines against the NCATS MIPE library collection: MMM1_PLB cell viability assay (AID 1918976); further: potency means the concentration at half of the fitted maximal effect; nearly all actives have a fitted effect of over 35% in size
Method in brief: (§4)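 ATP-based CellTiter-Glo luminescence after 48 h drug exposure (37 °C, 5% CO2) of 500 myeloma cells per well. DMSO-only wells set 100% viability, media-only wells 0%; MIPE 4.0 library added by pin tool.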

[11] = Quantitative High-Throughput drug screen in 47 multiple myeloma cell lines against the NCATS MIPE library collection: MOLP8_DSMZ cell viability assay (AID 1918977); conditions: MOLP8 myeloma viability, CellTiter-Glo ATP luminescence, 48 h; viability (% of control): at 45.8 µM (top of the series); further: nearly all actives have a fitted effect of over 45% in size; further: potency means the concentration at half of the fitted maximal effect
Method in brief: as §4

[12] = Quantitative High-Throughput drug screen in 47 multiple myeloma cell lines against the NCATS MIPE library collection: OCIMY1_PLB cell viability assay (AID 1918979); further: nearly all actives have a fitted effect of over 35% in size; further: potency means the concentration at half of the fitted maximal effect
Method in brief: as §4

[13] = Quantitative High-Throughput drug screen in 47 multiple myeloma cell lines against the NCATS MIPE library collection: MM1S_ATCC cell viability assay (AID 1918980); further: nearly all actives have a fitted effect of over 45% in size; further: potency means the concentration at half of the fitted maximal effect
Method in brief: as §4

[14] = Quantitative High-Throughput drug screen in 47 multiple myeloma cell lines against the NCATS MIPE library collection: MM1R_ATCC cell viability assay (AID 1918981); further: nearly all actives have a fitted effect of over 35% in size
Method in brief: as §4

[15] = Quantitative High-Throughput drug screen in 47 multiple myeloma cell lines against the NCATS MIPE library collection: LP1_DSMZ cell viability assay (AID 1918982)
Method in brief: as §4

[16] = Quantitative High-Throughput drug screen in 47 multiple myeloma cell lines against the NCATS MIPE library collection: H1112_PLB cell viability assay (AID 1918967; further: potency means the concentration at half of the fitted maximal effect; nearly all actives have a fitted effect of over 30% in size); conditions: H1112 myeloma cells viability, ATP luminescence, 48 h; viability: at 45.8 µM (top of the series)
Method in brief: as §2

[17] = Quantitative High-Throughput drug screen in 47 multiple myeloma cell lines against the NCATS MIPE library collection: KMS28PE_JCRB cell viability assay (AID 1918983); further: nearly all actives have a fitted effect of over 35% in size
Method in brief: as §4

[18] = Quantitative High-Throughput drug screen in 47 multiple myeloma cell lines against the NCATS MIPE library collection: NCIH929_DSMZ cell viability assay (AID 1918978); further: nearly all actives have a fitted effect of over 35% in size
Method in brief: as §4

[19] = Quantitative High-Throughput drug screen in 47 multiple myeloma cell lines against the NCATS MIPE library collection: KMS27_JCRB cell viability assay (AID 1918970); conditions: KMS27 myeloma cells, CellTiter-Glo ATP viability, 48 h; viability (% of DMSO): at 45.8 µM (top of the series); further: potency means the concentration at half of the fitted maximal effect; nearly all actives have a fitted effect of over 30% in size
Method in brief: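 Each line is seeded at 500 cells per well and treated with library compounds for 48 hours under 37 °C, 5% CO2. CellTiter-Glo is then added for 5 min at room temperature before median relative luminescence is recorded.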

Measured: Potency

COC(c1ccccc1)(c1ccccc1)[C@H](Oc1nc(C)cc(C)n1)C(=O)O
inconclusive: [3] 1.05 µM [cytotoxic, full curve, poor fit] | [4] 0.0526 µM [cytotoxic, full curve, poor fit] | [5] 5.9 µM [cytotoxic, partial curve, poor fit] | [7] 0.0015 µM [cytotoxic, full curve, poor fit] | [8] 37.2 µM [rising, single point] | [10] 11.8 µM [cytotoxic, partial curve, poor fit] | [11] 2.64 µM [cytotoxic, full curve, poor fit] | [13] 29.6 µM [cytotoxic, single point] | [15] 0.0012 µM [cytotoxic, full curve, poor fit]
inactive: [1] | [2] | [6] | [9] | [12] | [14]

CC#CCn1c(N2CCC[C@@H](N)C2)nc2c1c(=O)n(Cc1nc(C)c3ccccc3n1)c(=O)n2C
inconclusive: [1] 0.001 µM [cytotoxic] | [2] 0.0372 µM [rising, full curve, poor fit] | [3] 37.2 µM [cytotoxic, single point] | [16] 14.8 µM [cytotoxic, partial curve, poor fit] | [5] 26.4 µM [cytotoxic, partial curve, poor fit] | [7] 11.8 µM [rising, single point] | [8] 20.9 µM [rising, partial curve] | [10] 5.9 µM [cytotoxic, partial curve, poor fit]
inactive: [9] | [11] | [12] | [17]

CN(C)C(=N)N=C(N)N
inconclusive: [1] 18.7 µM [cytotoxic, single point] | [2] 0.0105 µM [cytotoxic, full curve, poor fit] | [4] 0.0012 µM [cytotoxic, full curve, poor fit] | [5] 3.72 µM [cytotoxic, partial curve, poor fit] | [8] 37.2 µM [rising, partial curve, poor fit] | [10] 16.6 µM [cytotoxic, partial curve, poor fit] | [11] 5.9 µM [cytotoxic, partial curve, poor fit] | [15] 0.0013 µM [cytotoxic, full curve, poor fit]
inactive: [3] | [7] | [9] | [18] | [13] | [14]

O=C(O)C=Cc1ccc(Cn2ccnc2)cc1
inconclusive: [3] 2.64 µM [cytotoxic, full curve, poor fit] | [19] 0.0833 µM [cytotoxic, full curve, poor fit] | [8] 29.6 µM [rising, partial curve] | [10] 11.8 µM [cytotoxic, partial curve, poor fit]
inactive: [1] | [2] | [4] | [5] | [11] | [13]

C[C@]1(c2nc3c(C(N)=O)cccc3[nH]2)CCCN1
inconclusive: [1] 18.7 µM [cytotoxic, partial curve] | [2] 0.833 µM [rising, partial curve, poor fit] | [3] 7.43 µM [cytotoxic, partial curve, poor fit] | [4] 18.7 µM [cytotoxic, partial curve, poor fit] | [19] 0.0012 µM [rising, full curve, poor fit] | [5] 0.0059 µM [rising, full curve] | [6] 0.001 µM | [7] 23.5 µM [cytotoxic, partial curve, poor fit] | [9] 0.0059 µM [rising, full curve, poor fit] | [10] 0.0042 µM [rising, full curve, poor fit] | [11] 0.0021 µM [rising, full curve, poor fit] | [12] 0.0021 µM [rising, full curve] | [15] 11.8 µM [cytotoxic, single point]
